Source: article PMC4754350
These are yes or no findings as the source states them, for the method shown. In cells and extracts the contact can be indirect. Some results given as binding are weak or reduced against the parent protein; the word gives no strength. For part of these data: Sequences can lack the tags named with a protein.

The chains behind the UniProt entries cited, without tags or fusion partners.
UniProt Q9NRC8: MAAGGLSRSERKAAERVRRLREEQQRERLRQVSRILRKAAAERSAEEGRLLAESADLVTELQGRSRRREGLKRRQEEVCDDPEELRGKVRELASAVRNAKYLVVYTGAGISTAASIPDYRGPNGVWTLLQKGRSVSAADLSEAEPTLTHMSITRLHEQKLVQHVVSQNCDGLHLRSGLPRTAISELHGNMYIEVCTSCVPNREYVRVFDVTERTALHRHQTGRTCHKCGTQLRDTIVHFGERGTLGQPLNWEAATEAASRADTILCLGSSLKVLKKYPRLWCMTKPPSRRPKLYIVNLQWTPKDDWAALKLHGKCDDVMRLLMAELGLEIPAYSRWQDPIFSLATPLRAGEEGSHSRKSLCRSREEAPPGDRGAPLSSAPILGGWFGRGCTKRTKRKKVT
UniProt Q8N6T7: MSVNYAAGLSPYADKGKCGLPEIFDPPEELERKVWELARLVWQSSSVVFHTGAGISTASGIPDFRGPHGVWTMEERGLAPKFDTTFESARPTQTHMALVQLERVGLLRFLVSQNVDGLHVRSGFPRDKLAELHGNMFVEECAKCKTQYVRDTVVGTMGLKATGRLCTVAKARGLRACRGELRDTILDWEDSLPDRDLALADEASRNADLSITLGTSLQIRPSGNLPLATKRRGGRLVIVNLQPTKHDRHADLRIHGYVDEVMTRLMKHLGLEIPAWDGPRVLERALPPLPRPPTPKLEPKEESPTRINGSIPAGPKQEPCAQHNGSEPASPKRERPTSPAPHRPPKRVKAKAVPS

Columns and labels:
Flag-U3-55k (human) = molecular target: T1, Flag-U3-55k (human) (UniProt O43818); experiment: co-IP; lysates from HEK293T cells co-expressing Flag-U3-55k and GFP-tagged sirtuins, anti-Flag antibody, western blot with anti-GFP; lysis in 20 mM Tris-HCl pH 7.9, 0.1% NP-40, 150 mM KCl, 5 mM MgCl2
T1 sequence: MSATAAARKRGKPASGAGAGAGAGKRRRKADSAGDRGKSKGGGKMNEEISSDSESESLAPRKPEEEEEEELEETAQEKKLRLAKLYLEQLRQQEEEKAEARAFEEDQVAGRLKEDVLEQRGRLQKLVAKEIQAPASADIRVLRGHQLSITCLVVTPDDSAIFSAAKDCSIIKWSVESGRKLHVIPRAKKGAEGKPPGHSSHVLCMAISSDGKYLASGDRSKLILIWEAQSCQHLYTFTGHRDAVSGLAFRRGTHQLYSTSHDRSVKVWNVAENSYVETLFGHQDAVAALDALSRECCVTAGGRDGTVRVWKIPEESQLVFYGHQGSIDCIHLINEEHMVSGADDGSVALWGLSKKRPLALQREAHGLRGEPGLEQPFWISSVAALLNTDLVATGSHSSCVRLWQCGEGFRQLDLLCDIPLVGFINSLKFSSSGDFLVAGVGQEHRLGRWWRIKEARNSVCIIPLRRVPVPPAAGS

endogenous SIRT7 = endogenous SIRT7 (UniProt Q9NRC8); experiment: co-IP; endogenous SIRT7 immunoprecipitated with 5 ug anti-SIRT7 antibodies, co-precipitated endogenous U3-55k detected with anti-U3-55k antibodies

Row | binding (Flag-U3-55k (human)) | binding (endogenous SIRT7) | Molecule
1 | no binding | – | GFP-tagged SIRT6 (from UniProt Q8N6T7 1-355) (enzyme)
2 | binds | – | GFP-SIRT7 (green fluorescent protein-human sirtuin 7) (from UniProt Q9NRC8 1-400) (enzyme)
3 | – | binds | endogenous U3-55k (protein, UniProt O43818 1-475) MSATAAARKRGKPASGAGAGAGAGKRRRKADSAGDRGKSKGGGKMNEEISSDSESESLAPRKPEEEEEEELEETAQEKKLRLAKLYLEQLRQQEEEKAEARAFEEDQVAGRLKEDVLEQRGRLQKLVAKEIQAPASADIRVLRGHQLSITCLVVTPDDSAIFSAAKDCSIIKWSVESGRKLHVIPRAKKGAEGKPPGHSSHVLCMAISSDGKYLASGDRSKLILIWEAQSCQHLYTFTGHRDAVSGLAFRRGTHQLYSTSHDRSVKVWNVAENSYVETLFGHQDAVAALDALSRECCVTAGGRDGTVRVWKIPEESQLVFYGHQGSIDCIHLINEEHMVSGADDGSVALWGLSKKRPLALQREAHGLRGEPGLEQPFWISSVAALLNTDLVATGSHSSCVRLWQCGEGFRQLDLLCDIPLVGFINSLKFSSSGDFLVAGVGQEHRLGRWWRIKEARNSVCIIPLRRVPVPPAAGS
